Primary screen of a compound library

By UniProt entry, the sequences of proteins in these tests, tags left out. Residues count along the entry.
UniProt Q4DA54, 1-478: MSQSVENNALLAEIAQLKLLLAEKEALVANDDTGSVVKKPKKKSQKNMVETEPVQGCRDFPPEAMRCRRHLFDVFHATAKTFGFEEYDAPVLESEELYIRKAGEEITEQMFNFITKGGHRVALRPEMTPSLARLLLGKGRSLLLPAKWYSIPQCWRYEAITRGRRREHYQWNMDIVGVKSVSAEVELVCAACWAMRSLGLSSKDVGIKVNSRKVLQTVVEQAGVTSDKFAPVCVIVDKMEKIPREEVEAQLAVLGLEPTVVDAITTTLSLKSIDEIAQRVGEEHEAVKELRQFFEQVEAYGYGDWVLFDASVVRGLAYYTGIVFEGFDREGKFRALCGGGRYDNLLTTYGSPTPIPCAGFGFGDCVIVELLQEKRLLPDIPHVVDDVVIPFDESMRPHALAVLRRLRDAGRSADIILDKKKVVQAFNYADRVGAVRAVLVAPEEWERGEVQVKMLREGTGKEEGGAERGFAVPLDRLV

Source: ChEMBL document CHEMBL3988442, “University of Dundee, Small-Polar-MMV Screening Library” (2021).

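Histidine-tRNA ligase, Trypanosoma cruzi CL Brener (UniProt Q4DA54). Enzyme assay of histidyl-tRNA synthetase; the read-out is not stated. Concentration: 30 µM. The record gives no direction; compounds that gave an IC50 in retests scored well above the rest, so higher reads as stronger inhibition. Of about 69,000 compounds tested this way, about 31 (0.045%) reached 50% or more in at least one test.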

Each number is a percent effect as filed.
How 0% and 100% were set is not recorded. Most values in the screen are low, and negative values occur.
The compounds are a random part of those screened.

{"structure": "COc1ccc(NC(=O)COc2nn(C)c3nc(C)cc(C)c23)cn1", "effect": 2.051}
{"structure": "CC(C)(C)c1nc(CN2CCCC2Cn2cccn2)no1", "stereo": "centres unmarked", "effect": -0.7634}
{"structure": "CC(NC(=O)N(C)Cc1ccsc1)c1nncn1C", "stereo": "centres unmarked", "effect": 2.116}
{"structure": "CCn1nc(C)c2nnn(CC(=O)Nc3ccc(C)c(C)c3)c(=O)c21", "effect": 6.957}
{"structure": "CCNC(=O)CN1CCc2c(Br)ccc(F)c2C1", "effect": 4.972}
{"structure": "COc1ccc(CN(C(=O)C2CCCOC2)c2ccncc2)cc1", "stereo": "centres unmarked", "effect": -0.5952}
{"structure": "COc1cccc(CN(C)C(C)c2ccon2)c1OCCn1ccnc1", "stereo": "centres unmarked", "effect": 6.952}
{"structure": "CCc1nc(CN2CCCC(NCc3cnn(C(C)(C)C)c3)C2)no1", "stereo": "centres unmarked", "effect": 3.008}
{"structure": "NC(=O)NC(=O)CN1CCN(c2nccs2)CC1", "effect": 4.035}
{"structure": "Cc1cc(CN(C)C(=O)C(c2ccccc2C)N(C)C)on1", "stereo": "centres unmarked", "effect": 3.352}
{"structure": "O=C1CCC(c2nc(C3CCNCC3)no2)N1", "stereo": "centres unmarked", "effect": 2}
{"structure": "CCn1cc(NC(=O)NCC2(N3CCOCC3)CCSC2)cn1", "stereo": "centres unmarked", "effect": -3.333}
{"structure": "CCOC(=O)c1cnn(-c2cc(Oc3cccc(C)c3)ncn2)c1N", "effect": 6.14}
{"structure": "CCc1noc(CN(Cc2cccs2)C2CC2)n1", "effect": -2.242}
{"structure": "CNc1oc(COc2ccc3c(c2)OCO3)nc1C#N", "effect": -0.5848}
{"structure": "CCCN(CC(F)(F)F)S(=O)(=O)c1cc(C(N)=O)n(C)c1", "effect": 0.5291}
{"structure": "O=C(Nc1ccc(N2CCCCC2)cn1)C1CCCN1C(=O)C1CC1", "stereo": "centres unmarked", "effect": -3.061}
{"structure": "O=C(c1c(F)cccc1Br)N1CCCOCC1", "effect": -4.819}
{"structure": "Cc1noc(-c2c[nH]nc2C2CCCN2C(=O)c2ccccc2)c1C", "stereo": "centres unmarked", "effect": 5.639}
{"structure": "CC(=O)Nc1ccc(CN2CCOC2=O)cc1", "effect": 2.116}
{"structure": "CC(C)CNC(=O)N1C[C@H]2C[C@H](C(=O)NCc3ccccc3)[C@@H](C1)O2", "effect": 7.438}
{"structure": "CC(C)CN1CCC2(Cc3ccccc3NC2=O)C1", "stereo": "centres unmarked", "effect": 0}
{"structure": "CCn1cc(S(=O)(=O)N2CCN(C(=O)c3cc(Br)cs3)CC2)c(C)n1", "effect": -0.5181}
{"structure": "Cc1cnn(C2CN(Cc3nc(-c4cccnc4)no3)C2)c1", "effect": 12.07}
{"structure": "CCOCC1CN(C(=O)Cc2ccccn2)Cc2c1cnn2C", "stereo": "centres unmarked", "effect": 9.184}
{"structure": "CCNC(=O)CN1CCCC(c2ccc(C(=O)O)cc2)C1", "stereo": "centres unmarked", "effect": 4.036}
{"structure": "CCCc1nc(C)cc(N2CCNC(C(=O)NCc3cccnc3)C2)n1", "stereo": "centres unmarked", "effect": 8.671}
{"structure": "Cc1cc(Cc2ccc(S(=O)(=O)N3CCSCC3)cc2)c(=O)[nH]n1", "effect": -3.636}
{"structure": "Cc1cnn(CC2CCCCN2c2nn3cc(C)nc3s2)c1", "stereo": "centres unmarked", "effect": 7.123}
{"structure": "CC(=O)N1CCN(C(=O)C(C)n2cncn2)CC1", "stereo": "centres unmarked", "effect": 2.632}
{"structure": "Cn1cc(N2CCCC(SCc3nc(C4CC4)no3)C2=O)cn1", "stereo": "centres unmarked", "effect": -4.969}
{"structure": "CCc1nc(CC(=O)NCC2(C(N)=O)CCOCC2)cs1", "effect": 2.809}
{"structure": "CCOCCCNCc1cc(O)c2cc(C)ccc2n1", "effect": 10.71}
{"structure": "O=c1c2cccnc2ccn1Cc1nccn1C1CC1", "effect": -27.07}

2 of the entries, repeated:

structure,effect
O=C1CCC(c2nc(C3CCNCC3)no2)N1 (centres unmarked),2%
NC(=O)NC(=O)CN1CCN(c2nccs2)CC1,4.035%